These are yes or no findings as the source states them, for the method shown. Some entries that bind do so weakly or less than the wild type. Where a sequence is shown, tags or fusion partners need not be part of it.

One experiment deals with T1, His-SUMO FoxM1 (UniProt Q08050).
T1 sequence: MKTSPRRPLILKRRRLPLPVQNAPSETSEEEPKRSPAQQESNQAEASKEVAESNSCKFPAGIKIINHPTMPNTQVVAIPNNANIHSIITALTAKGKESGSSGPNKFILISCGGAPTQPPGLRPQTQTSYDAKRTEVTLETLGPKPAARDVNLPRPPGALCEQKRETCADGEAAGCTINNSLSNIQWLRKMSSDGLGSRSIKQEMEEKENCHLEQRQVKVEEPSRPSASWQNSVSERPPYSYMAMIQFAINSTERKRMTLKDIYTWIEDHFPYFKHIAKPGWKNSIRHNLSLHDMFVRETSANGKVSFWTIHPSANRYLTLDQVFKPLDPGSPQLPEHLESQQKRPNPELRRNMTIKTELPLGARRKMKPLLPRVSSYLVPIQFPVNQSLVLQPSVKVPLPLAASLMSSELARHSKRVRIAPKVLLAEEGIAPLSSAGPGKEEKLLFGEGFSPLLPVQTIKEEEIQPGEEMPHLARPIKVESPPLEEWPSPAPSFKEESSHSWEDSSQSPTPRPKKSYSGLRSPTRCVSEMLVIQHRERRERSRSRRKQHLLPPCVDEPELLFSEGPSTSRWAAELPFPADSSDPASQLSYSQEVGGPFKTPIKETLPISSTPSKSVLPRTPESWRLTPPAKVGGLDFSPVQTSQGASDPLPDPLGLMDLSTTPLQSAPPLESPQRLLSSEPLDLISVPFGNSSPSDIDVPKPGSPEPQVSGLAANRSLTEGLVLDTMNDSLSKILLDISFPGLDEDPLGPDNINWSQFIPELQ
The experiment in a line: ELISA; plates coated with 2 μg His-p53 or His-SUMO-FoxM1 (1 h, room temperature), blocked with 3% BSA in PBST, covered with 0.5 μg His-SUMO-SETD3 for 1 h; detected with anti-SETD3 and HRP secondary, absorbance at 450 nm; both purified.

In the next experiment the target is His-p53 (UniProt P04637). The experiment in a line: condition: 0.5 μg His-SUMO-SETD3 on 2 μg coated His-p53; ELISA; plates coated with 2 μg His-p53 or His-SUMO-FoxM1 (1 h, room temperature), blocked with 3% BSA in PBST, covered with 0.5 μg His-SUMO-SETD3 for 1 h; detected with anti-SETD3 and HRP secondary, absorbance at 450 nm; both purified. (In general: An ELISA detects its analyte on a solid surface through an enzyme-linked reagent.)

B1: His-SUMO SETD3 (enzyme, UniProt Q86TU7 1-594)
chain: MGKKSRVKTQKSGTGATATVSPKEILNLTSELLQKCSSPAPGPGKEWEEYVQIRTLVEKIRKKQKGLSVTFDGKREDYFPDLMKWASENGASVEGFEMVNFKEEGFGLRATRDIKAEELFLWVPRKLLMTVESAKNSVLGPLYSQDRILQAMGNIALAFHLLCERASPNSFWQPYIQTLPSEYDTPLYFEEDEVRYLQSTQAIHDVFSQYKNTARQYAYFYKVIQTHPHANKLPLKDSFTYEDYRWAVSSVMTRQNQIPTEDGSRVTLALIPLWDMCNHTNGLITTGYNLEDDRCECVALQDFRAGEQIYIFYGTRSNAEFVIHSGFFFDNNSHDRVKIKLGVSKSDRLYAMKAEVLARAGIPTSSVFALHFTEPPISAQLLAFLRVFCMTEEELKEHLLGDSAIDRIFTLGNSEFPVSWDNEVKLWTFLEDRASLLLKTYKTTIEEDKSVLKNHDLSVRAKMAIKLRLGEKEILEKAVKSAAVNREYYRQQMEEKAPLPKYEESNLGLLESSVGDSRLPLVLRNLEEEAGVQDALNIREAISKAKATENGLVNGENSIPNGTRSENESLNQESKRAVEDAKGSSSDSTAGVKE
With B1, the binding result is on record as “binds” with His-SUMO FoxM1 and “no binding” in the experiment with His-p53.

For the origin of these results see PMC6347638.
